# Data as given in PubChem BioAssay AID651640 (Broad Institute, 2012).
# Screen size: about 350,000 compounds; about 6,000 (1.7%) were called active. This list was built around the results that the source calls inconclusive (neither active nor inactive); the mix of calls is not that of the screen. Cut-off read from the data, not from the text of the source: active = CPE inhibition above about 20% (passing the limit was not always enough); inconclusive = no clear call, values can overlap the other calls; tested in BHK-21 cells.
# Experiment: protection of cells from dengue 2 killing – plate reader, single concentration, primary screen (AID 651640);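 note: 0% = median of neutral control wells and 100% = median of positive control wells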
# Conditions: DENV2-infected cells, cytopathic effect rescue, at 9.99 µM, hits give high values
row,SMILES,CPE inhibition
1,C[C@H](CO)N1C[C@H](C)[C@H](CN(C)Cc2ccc(-c3ccccc3)cc2)Oc2ccc(NS(=O)(=O)c3cccs3)cc2CC1=O,active: 50.9%
2,CNC[C@@H]1Oc2cc(C#CC3(O)CCCC3)ccc2S(=O)(=O)N([C@@H](C)CO)C[C@@H]1C,inactive: -0.698%
3,COc1ccc2c3c([nH]c2c1)[C@@H](CO)N(C(=O)CC1CC1)CC31CCN(C(=O)CC2CC2)CC1,inactive: -3.4%
4,O=C(c1ccccn1)N1CCCC(N2CCN(c3ccc(F)cc3)CC2)C1 (centres undefined),inconclusive: 36.8%
5,C[C@H](CO)N1C[C@H](C)[C@H](CN(C)C(=O)Cc2cccnc2)Oc2ncc(Br)cc2C1=O,inconclusive: 22.2%
6,O=C(C1CCCC1)N1CC(=O)N2[C@H](CO)[C@H](c3ccc(-c4ccccc4F)cc3)[C@@H]2C1,inconclusive: 50.5%
7,C[C@@H](NC(=O)C[C@@H]1CC[C@@H]2[C@H](COC[C@@H](O)CN2C(=O)Nc2cccc(F)c2)O1)c1ccccc1,active: 24.3%
8,CO[C@@H]1CN(C)C(=O)c2ccc(NC(=O)C3CC3)cc2OC[C@@H](C)N(C(=O)Nc2ccc(C(F)(F)F)cc2)C[C@H]1C,inactive: 1.27%
9,C[C@H]1CCCCO[C@H](CN(C)C(=O)c2ccncc2)[C@@H](C)CN([C@@H](C)CO)C(=O)c2cc(NS(=O)(=O)c3ccccc3)ccc2O1,inactive: -2.91%
10,CN(C)CCCNC(=O)C[C@@H]1CC[C@@H]2[C@@H](COc3ccc(NC(=O)c4ccccc4F)cc3C(=O)N2C)O1,inactive: 6.33%
11,CCCc1cc(=O)oc2c3c(cc(OCC(=O)NCC4CCC(C(=O)O)CC4)c12)OC(C)(C)CC3 (centres undefined),inactive: -4.17%
12,COCC(=O)N1C[C@H](C)[C@H](OC)CN(C)C(=O)c2cc(NS(C)(=O)=O)ccc2OC[C@@H]1C,inconclusive: 28.2%
13,Cn1c(SCC(=O)Nc2nncs2)nnc1C1CC1,inconclusive: 23.8%
14,O=C(CC1CC1)Nc1ccc2c(c1)[C@@H]1C[C@H](CC(=O)NC3CCCC3)O[C@@H](CO)[C@@H]1O2,inconclusive: 30.4%
15,COc1ccc2c(c1)CCC(=O)[C@H](O)C[C@H](c1ccccc1)OC2=O,inconclusive: 24.4%
16,COc1ccc(C)cc1S(=O)(=O)Nc1cc2c3c(c1)CCC(=O)N3CCC2,inconclusive: 25.2%
17,CC(C)N(Cc1ccccc1)C(=O)COC(=O)c1c(F)cccc1F,inconclusive: 39.6%
18,CCCCC1=CC2=C(c3ccco3)C(=O)C(C)(OC(=O)c3ccc(OC)cc3)C(=O)C2=CN1C1CC1 (centres undefined),active: 52.9%
19,COc1cc(OC)c(CN2CCCN(C)CC2)cc1Br,inconclusive: 35.2%

# 2 of the compounds above, bar-delimited.
row | SMILES | CPE inhibition
11 | CCCc1cc(=O)oc2c3c(cc(OCC(=O)NCC4CCC(C(=O)O)CC4)c12)OC(C)(C)CC3 (centres undefined) | inactive: -4.17%
12 | COCC(=O)N1C[C@H](C)[C@H](OC)CN(C)C(=O)c2cc(NS(C)(=O)=O)ccc2OC[C@@H]1C | inconclusive: 28.2%
